Here are results for 39 sequences from paper PMC7862700.

Only a part is listed here, and it is no random draw. For part of these data: At the low end of the ranking the order means little.

The first test concerns the target T1, ELK1 (UniProt P19419).
T1 sequence: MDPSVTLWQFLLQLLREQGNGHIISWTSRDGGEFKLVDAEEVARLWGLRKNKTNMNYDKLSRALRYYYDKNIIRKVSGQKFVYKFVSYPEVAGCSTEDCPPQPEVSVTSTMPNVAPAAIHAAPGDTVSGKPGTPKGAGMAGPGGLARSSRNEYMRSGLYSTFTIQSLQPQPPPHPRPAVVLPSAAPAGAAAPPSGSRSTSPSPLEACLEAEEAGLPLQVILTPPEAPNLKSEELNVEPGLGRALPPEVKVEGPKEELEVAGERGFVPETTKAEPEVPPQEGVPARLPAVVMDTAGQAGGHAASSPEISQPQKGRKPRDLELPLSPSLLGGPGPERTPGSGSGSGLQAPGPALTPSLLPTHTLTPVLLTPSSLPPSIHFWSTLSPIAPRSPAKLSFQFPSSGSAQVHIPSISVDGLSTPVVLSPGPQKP
Description: DAPPL (digital affinity profiling via proximity ligation, sequencing). The note with it: 10 mM Tris-HCl pH 7.5, 50 mM NaCl, 1 mM DTT, 4% glycerol, room temperature, 30 min; GST-TFs on glutathione beads, 16-mer random dsDNA library, 0.1% …; high values mean tight binding; double strand, one strand shown; scale: fold enrichment (6-mer frequency, TF over GST control).
In the case of ATGCAC, the binding signal stood at 1.33.

Regarding CTGGCC, the binding signal stood at 1.13.

GCTTCA showed a binding signal of 1.39.

In turn, CCCTAC yielded a binding signal of 1.49.

As to TTCGTA, the binding signal amounted to 1.44.

In turn, TCCCTA gave a binding signal of 1.26.

For CGGCTA, the binding signal was determined as 1.14.

Sequence TCCGGC displayed a binding signal of 2.4.

The sequence AAAAGA gave a binding signal of 1.19.

In turn, TTTTGA had a binding signal of 1.18.

On to GCTCCA, for which the binding signal was determined as 1.17.

Consider ATTGCC, for which the binding signal turned out to be 1.27.

ATAGTA gave a binding signal of 1.18.

Regarding TTTAGC, the binding signal stood at 1.05.

ACCCGC gave a binding signal of 1.29.

The target of the next test is T2, SPIC (UniProt Q8N5J4).
T2 sequence: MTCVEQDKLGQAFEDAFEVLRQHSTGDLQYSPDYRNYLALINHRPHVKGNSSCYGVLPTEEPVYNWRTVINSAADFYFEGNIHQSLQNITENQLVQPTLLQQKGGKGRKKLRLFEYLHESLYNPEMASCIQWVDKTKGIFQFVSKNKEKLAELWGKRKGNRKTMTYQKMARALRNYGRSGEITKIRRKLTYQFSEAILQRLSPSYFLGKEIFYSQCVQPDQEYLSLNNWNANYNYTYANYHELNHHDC
The test is described as above. The note with it: 10 mM Tris-HCl pH 7.5, 50 mM NaCl, 1 mM DTT, 4% glycerol, room temperature, 30 min; GST-TFs on glutathione beads, 16-mer random dsDNA library, 0.1% …; high values mean tight binding; double strand, one strand shown; scale: fold enrichment (6-mer frequency, TF over GST control).
ATGCAC: the binding signal was 1.19.

For the sequence CTGGCC, the binding signal came out at 0.955.

GCTTCA came in with a binding signal of 1.3.

Sequence AAACCC returned a binding signal of 1.2.

In turn, TCGCAC gave a binding signal of 1.06.

CTAAAC had a binding signal of 1.18.

Sequence CCCTAC came in with a binding signal of 1.45.

As to CTATAT, the binding signal is 1.47.

Take ACCGAT: the binding signal was determined as 1.33.

Consider CTTTAA, for which the binding signal is 1.36.

In turn, TTTGGT gave a binding signal of 1.37.

As to CTAATG, the binding signal worked out at 1.35.

Sequence TTCGTA displayed a binding signal of 1.42.

Consider TCCCTA, for which the binding signal came out at 1.31.

The sequence CTCCGC registered a binding signal of 1.51.

CGGCTA registered a binding signal of 0.898.

For the sequence ATAACT, the binding signal stood at 1.28.

For CGTTCA, the binding signal came to 0.938.

Consider TCCGGC, for which the binding signal is 2.2.

Regarding AACCTT, the binding signal is 1.17.

Take CTTGCC: the binding signal was 1.66.

For the sequence AAAAGA, the binding signal was 0.999.

TTTTGA displayed a binding signal of 1.21.

The sequence GTACTT registered a binding signal of 1.86.

GCTCCA: the binding signal was found to be 1.08.

On to ATTGCC, for which the binding signal came out at 1.29.

TGCTTT gave a binding signal of 1.16.

For the sequence ATAGTA, the binding signal was found to be 1.29.

GCATTC registered a binding signal of 0.986.

TGACTC returned a binding signal of 1.48.

TACTTC registered a binding signal of 3.27.

With TTTAGC, the binding signal came to 1.07.

The sequence AAAATT gave a binding signal of 1.2.

Regarding GAACCT, the binding signal worked out at 1.09.

Consider TGCTAT, for which the binding signal is 1.37.

The sequence ACCCGC displayed a binding signal of 1.16.

As to TCCCAC, the binding signal was found to be 1.17.

As for CTCTGT, the binding signal was 1.5.

On to GTATAT, for which the binding signal amounted to 1.18.
